Experimental data taken from patent publication US20050201932A1.
No constants are given. Whether binding was seen depends on the method and setting. Binding calls can cover weak binding; strength is not graded here.

How the values were obtained:
[1] = biological target: human polymeric immunoglobulin receptor (pIgR), tested as overlapping 15-residue peptides (human); experiment: peptide ELISA, overlapping 15-residue peptides, phage-displayed scFv
[2] = biological target: rat polymeric immunoglobulin receptor (pIgR), tested as overlapping 15-residue peptides (rat); experiment: as above

B1: scFv 4A (scFv)
scFv: QVQLVQSGGGLVQPGGSLRLSCAASGFTFSSYAMSWVRQAPGKGLEWVSAISGSGGSTYYADSVKGRFTISRDNSKNTLYLQMNSLRAEDTAVYYCARSFTVNSGYFQHWGQGTLVTVSSGGGGSGGGGSGGGGSEIVLTQSPSTLSASIGDRVTITCRASEGIYHWLAWYQQKPGKAPKLLIYKASSLASGVPSRFSGSGSGTDFTLTISSLQPEDFATYYCQHYDSTPPTFGQGTKVDIKRAAAEQKLISEEDLNGAAHHHHHH
[1]
  binding: binds
[2]
  binding: binds
